# Source: US8247409B2, “Thieno-[2,3-d]pyrimidine and thieno-pyridazine compounds and methods of use” (Amgen Inc., priority 2006, dated 2012)
# Some of these results come from one statement about several compounds together.
# Test system: LPS induced TNF release from monocytes
# Assay: Lipopolysaccharide-activated Monocyte TNF Production Assay
# Type: cell-based, human
# Conditions: monocytes activated with LPS; TNF in supernatant by ELISA
# Procedure: Lipopolysaccharide-activated Monocyte TNF Production Assay
# Test compounds were evaluated in vitro for the ability to inhibit the production of TNF by monocytes activated with bacterial lipopolysaccharide (LPS). Fresh residual source leukocytes (a byproduct of plateletpheresis) were obtained from a local blood bank, and peripheral blood mononuclear cells (PBMCs) were isolated by density gradient centrifugation on Ficol-Paque Plus (Pharmacia). PBMCs were suspended at 2×10^6/mL in DMEM supplemented to contain 2% FCS, 10 mM, 0.3 mg/mL […], 100 U/mL penicillin G and […] streptomycin sulfate (complete media). Cells were plated into Falcon flat bottom, 96 well culture plates (200 μL/well) and cultured overnight at 37° C. and 6% CO2. Non-adherent cells were removed by washing with 200 μL/well of fresh medium. Wells containing adherent cells (˜70% monocytes) were replenished with 100 μL of fresh medium.
# Preparation of Test Compound Stock Solutions […]
# One hundred microliters of each test compound dilution were added to microtiter wells containing adherent monocytes and 100 μL complete medium. […] Culture supernatants were then removed and TNF presence in the supernatants was quantified using an ELISA. […]
# Standard curve data were fit to a second order polynomial and unknown TNF-α concentrations determined from their OD by solving this equation for concentration. […]
substance,measurement,value
"N-cyclopropyl-4-methyl-3-(2-(((1-(2,2,2-trifluoroethyl)-3-piperidinyl)methyl)amino)thieno[2,3-d]pyrimidin-6-yl)benzamide [Example 16]",IC50,≤ 5 µM
